PubChem BioAssay AID1347423 (Functional Genomics Laboratory (NCATS/FGL), 2020)
Hit rate of the full screen: of about 52,000 sequences, about 210 (0.4%) were called active.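 Rule for the calls: active = gene whose silencing raises cell survival under the drug, median off-target-corrected z-score across its silencing RNAs 2 or more; inactive = the rest.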 The list shows a part of the results.

Test: Resistance to Poly (ADP-Ribose) Polymerase inhibitor: Gene Identification via Genome-wide siRNA Screen
Settings: mouse BRCA2 R2336H ES cells, olaparib, CellTiter-Glo viability; stronger effect = higher value
Source text: The role of Poly (ADP-Ribose) Polymerase (PARP) proteins in DNA repair has been elegantly utilized for the synthetic lethality-based treatment of BRCA-deficient tumors by PARP inhibitors. PARP inhibitors are now being used for treatment of BRCA-deficient breast and ovarian cancers. […] While several mechanisms of drug resistance have been identified, majority of these tumors develop drug resistance due to unknown causes. To identified novel regulators of chemo-resistance in BRCA2-mutated cells, we performed a genome wide siRNA library screen. We have found ES cells expressing a hypomorphic allele of BRCA2 to be hypersensitive to PAPP inhibitors (such as olaparib). We used ES cells expressing a mutant allele of BRCA2 that has a single amino acid substitution at position 2336 (arginine to histidine, R2336H). The screen was conducted using an Ambion (Thermo) Silencer Mouse Genome siRNA collection. The library targets 17,575 mouse genes with 3 siRNAs per gene. TET2 (E130014J05Rik) was identified as a top candidate.
Transfections were performed in 384 well plates (Corning 3707). Plates were coated with 0.1% gelatin in H2O overnight at ambient temperature. Gelatin solution was aspirated (BioTek EL406) and siRNAs were printed using a Bravo VPrep liquid handler integrated within a BioCel automation platform (Agilent). Cell viability was measured using CellTiter Glo (Promega). For transfections, […] of serum free media containing Lipofectamine RNAiMax […] was added to wells containing siRNA (0.8pmol). Lipid and siRNA were allowed to complex for 45 min at ambient temperature before addition of 1000 cells in DMEM, 30% FBS to yield final transfection mixtures containing 20 nM siRNA in DMEM, 15% FBS. PARPi (olaparib, AZD2281) was added 48 h post-transfection (500 nM) and viability (CellTiter Glo, Promega) was assayed 72 h later on a PerkinElmer Envision 2104 Multilabel plate reader. Ambion Silencer Select Negative Control #2 was incorporated on all screening plates (16 wells) and the median negative control value on each plate was used for normalization. An siRNA targeting Trp53 was used as a positive control. This control yielded a median protective effect of ~1.9 fold versus negative control throughout the screen. The median absolute deviation (MAD) based z-score was calculated for each siRNA. Genes were then ranked by taking the median value for all siRNAs tested against a given gene. Scores were also adjusted for seed-based off-target effects to help deprioritize likely false positives.
For “GCUACAGAAACCCGGGUAGTT against 2300003C06Rik”, the z-score was inactive: -3.07.
For “GGAAAUGUUGCCGUUGUCCTT against 2810423E13Rik”, the z-score was inactive: -1.68.
In the case of GGUGGAUAUUGAUAUCAAGTT against Fga, the z-score is reported as inactive: 0.753.
For “GGACUUGAGUCUUUGUGGATT against 0610006O14Rik”, the z-score was inactive: 1.6.
In the case of CCAGAUGUGUCGUAACAUATT against Clecsf9, the z-score is reported as inactive: -1.13.
In the case of CCAUACAUCAGUACUUACCTT against Olfr553, the z-score is reported as inactive: 0.795.
For “GCAUAACUUAAACUGCUCATT against C530015C18”, the z-score was inactive: 0.616.
For GCCCACAUUUGUGUAAUUCTT against Olfr653, the z-score was inactive: 0.749.
With GGUGAUCAGAAAGUACACCTT against Dtx2 the z-score was inactive: 0.0913.
For “CCCUGACAGAAGUGGUGAATT against F730038I15Rik”, the z-score was inactive: -1.65.
For “GCGGAGUCUUUGGCUUAGATT against D330050I23Rik”, the z-score was inactive: -1.52.
For “GCUACAAAUGUGUACCCUUTT against 2010004A03Rik”, the z-score was inactive: -0.864.
In the case of CGAAUAUUGUGUCAGGUAUTT against Ppp4r1, the z-score is reported as inactive: 0.246.
For GGCAGGACUCUGGAACAAGTT against Slc2a8, the z-score was inactive: -0.761.
For GGUCAGACAACUCAGGAAGTT against Tnfrsf13b, the z-score was inactive: -0.927.
With GGCCUGUUUUUAAAAAGUCTT against Ddx51 the z-score was inactive: -0.169.
In the case of GGGCCAGAAGAAGAGUCGATT against Mllt6, the z-score is reported as inactive: -0.504.
With GGAUUAGGUCAUUAUUAGGTT against Kcne3 the z-score was inactive: 1.45.
In the case of GGAGAUCUUCAGUCUCCUUTT against Homer1, the z-score is reported as inactive: 1.5.
For GGACAUCCAUCAGUACAGGTT against Hras1, the z-score was inactive: 0.731.
With GGUCACAGCAAGUUAAUAATT against Ranbp9 the z-score was inactive: -1.82.
For CCAAUGUUUUAGGCUUCCGTT against Tulp1, the z-score was inactive: -0.852.
For GCUCGAUAUAAUUUCACACTT against Neto1, the z-score was inactive: 0.241.
With “CCUUGUGCCAAAUACUUCATT against 5730559C18Rik” the z-score was inactive: -1.48.
For GCAAAAACAGGAUCACCCATT against Lrig1, the z-score was inactive: 1.98.
In the case of CCCUGGACAUUCUAAUUACTT against Lrfn2, the z-score is reported as inactive: -0.259.
In the case of GGAUUCAUAAAAGAAGCAATT against Zfp90, the z-score is reported as inactive: 0.776.
For CCCAGUUUCUCUAGGAAUATT against H2afx, the z-score was inactive: -0.0973.
For GGUCCGAUACAUCUAAACUTT against Cxcl11, the z-score was inactive: -0.359.
For “GCUUUCUUUUAUGGCACGGTT against C330014O21Rik”, the z-score was inactive: 1.79.
In the case of “GGCAUCCAUGUGCUCUUUCTT against 1700025D03Rik”, the z-score is reported as inactive: 0.321.
For GGAUUUCUUUGUCAGUACUTT against Il22ra2, the z-score was inactive: -0.901.
With “GGCUAGAAAACCUCUAUCUTT against 4930442L21Rik” the z-score was inactive: -1.17.
In the case of CCUCAACAGUUCCUAAGUUTT against Olfr1275, the z-score is reported as inactive: -3.16.
In the case of GGAAAGGUGUGAACAAUUGTT against Myh8, the z-score is reported as inactive: -0.122.
With GCAGUUUUGGGCAAUACCUTT against Olfr358 the z-score was inactive: 0.295.
In the case of “GGCUUACGAUGAAAAUAAATT against 4930431B11Rik”, the z-score is reported as inactive: -0.359.
In the case of GCCAGGUCAAGGCAUACUUTT against Apoa2, the z-score is reported as inactive: 0.889.
For “GGUACAGGUUCCUGUGAAUTT against 1700054O13Rik”, the z-score was inactive: 0.622.
In the case of CCCGUAACAAGAAUUAGCGTT against Mccc2, the z-score is reported as inactive: -0.0187.
With CCAGACGAGGAGAACAUCATT against BC042901 the z-score was inactive: -0.0813.
For GGCAACUCUUGAAGACUUGTT against Gdf15, the z-score was inactive: -0.418.
For GGAUCGAUCUGUUGAACAGTT against Dag1, the z-score was inactive: -0.693.
For GGGAAUAUUUGAAAUUCCATT against Usp54, the z-score was inactive: 0.95.
For “GCCGUAUCACCCUAAACUATT against C130099A20Rik”, the z-score was inactive: 0.667.
For GGGAGAUCAAUCAUUACUUTT against Olfr332, the z-score was inactive: -0.388.
With GGUCACAAGAAGAGCUUUUTT against Eppk1 the z-score was inactive: -0.954.
With GGGAAGAGAGACGAAAAAATT against Nufip1 the z-score was inactive: -0.539.
With UCAGCUGGUUUUAAUCUCUTT against Olfr1029 the z-score was inactive: -0.485.
In the case of GUCCCAGUACCUCAUUUUUTT against V1rc26, the z-score is reported as inactive: 0.689.
For “GGAGACAGAGCAUGUGGUATT against 1200015N20Rik”, the z-score was inactive: -0.63.
In the case of “GGAGAACCAUGAGAGGGACTT against 1700037C18Rik”, the z-score is reported as inactive: -0.111.
In the case of GGAGACAAAGACUUGUAAGTT against BC050188, the z-score is reported as inactive: 1.29.
In the case of GGACAUUAGGAAAUUAGAUTT against Ppp3cc, the z-score is reported as inactive: 0.289.
For “GGGAAAACUACGCAAGAGCTT against 1500010G04Rik”, the z-score was inactive: 0.545.
With CGAUUGACUUAAGAUUCAGTT against Hlf the z-score was inactive: 0.303.
In the case of GCGACUUGCUGAAUGAUUUTT against Pfkm, the z-score is reported as inactive: -0.213.
In the case of CCCUCAGCAGUUUAUGGAUTT against Kin, the z-score is reported as inactive: 0.168.
In the case of CCGUCCAAAUCCUUAUUGATT against Pcdhb2, the z-score is reported as inactive: -0.068.
With GCUUUAGAAUUCCAUACGATT against Zfp114 the z-score was inactive: 0.903.
In the case of “GAAUGAAGUGUUAUCCUGUTT against 1110017O22Rik”, the z-score is reported as inactive: -0.885.
With CCCUCGAGUGACCAUAGUGTT against MGC79224 the z-score was inactive: 0.723.
For GGGUUUACAAAAGAAUAUGTT against Nck2, the z-score was inactive: 1.24.
For CCAGCAACCUUAAGAAAUUTT against Ppp2r1a, the z-score was inactive: -1.55.
With GGGACAGCAAAGAAGAUAATT against Rrad the z-score was inactive: -1.21.
